Results: article PMC6461963
These are yes or no findings as the source states them, for the method shown. In cells and extracts the contact can be indirect. Some results given as binding are weak or reduced against the parent protein; the word gives no strength.

Sequences of proteins named here, by UniProt entry; tags and fusion partners are left off.
UniProt Q16531: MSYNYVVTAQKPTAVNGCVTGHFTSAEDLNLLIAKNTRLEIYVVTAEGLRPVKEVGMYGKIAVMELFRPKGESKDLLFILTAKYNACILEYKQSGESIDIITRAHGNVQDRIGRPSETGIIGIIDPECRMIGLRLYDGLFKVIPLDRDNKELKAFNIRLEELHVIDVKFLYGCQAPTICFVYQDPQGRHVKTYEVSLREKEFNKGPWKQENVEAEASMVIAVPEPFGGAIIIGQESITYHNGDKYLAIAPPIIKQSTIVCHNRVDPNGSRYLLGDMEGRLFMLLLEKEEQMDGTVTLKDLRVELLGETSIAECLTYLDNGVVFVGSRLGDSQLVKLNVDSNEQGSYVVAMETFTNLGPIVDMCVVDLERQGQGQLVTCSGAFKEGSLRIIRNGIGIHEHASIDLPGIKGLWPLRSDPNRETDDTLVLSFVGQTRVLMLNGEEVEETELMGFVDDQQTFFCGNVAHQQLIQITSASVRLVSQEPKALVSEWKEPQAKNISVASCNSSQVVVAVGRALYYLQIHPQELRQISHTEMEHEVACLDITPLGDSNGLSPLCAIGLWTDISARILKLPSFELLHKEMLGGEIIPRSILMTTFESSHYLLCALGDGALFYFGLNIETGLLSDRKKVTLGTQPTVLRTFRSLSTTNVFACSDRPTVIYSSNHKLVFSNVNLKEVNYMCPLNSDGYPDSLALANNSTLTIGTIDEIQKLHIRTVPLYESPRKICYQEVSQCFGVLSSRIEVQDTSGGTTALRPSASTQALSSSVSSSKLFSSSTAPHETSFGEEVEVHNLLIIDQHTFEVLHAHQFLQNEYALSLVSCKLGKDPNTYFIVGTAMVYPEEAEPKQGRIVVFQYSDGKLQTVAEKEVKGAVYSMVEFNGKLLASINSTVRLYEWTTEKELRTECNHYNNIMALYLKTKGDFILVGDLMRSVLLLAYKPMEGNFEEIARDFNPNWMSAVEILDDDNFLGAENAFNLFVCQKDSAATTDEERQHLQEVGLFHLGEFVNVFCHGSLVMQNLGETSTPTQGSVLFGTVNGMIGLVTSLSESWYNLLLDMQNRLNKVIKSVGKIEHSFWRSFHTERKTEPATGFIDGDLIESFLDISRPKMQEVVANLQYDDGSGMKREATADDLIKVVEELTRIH

Target: Flag-DDB1 (damage-specific DNA-binding protein 1) (UniProt Q16531)
Experiment: co-IP; 293T cells transfected with Flag-DDB1 and GST-HBx, with or without HA-CBFβ or HA-IFIT2 (control), collected 32 h later; lysis in 50 mM Tris-HCl pH 8.0, 150 mM NaCl, 1% NP-40; ANTI-FLAG M2 Affinity Gel overnight; immunoblot (Fig. 6b)

B1: Smc6 (protein, UniProt Q96SB8 1-1091)
chain: MAKRKEENFSSPKNAKRPRQEELEDFDKDGDEDECKGTTLTAAEVGIIESIHLKNFMCHSMLGPFKFGSNVNFVVGNNGSGKSAVLTALIVGLGGRAVATNRGSSLKGFVKDGQNSADISITLRNRGDDAFKASVYGNSILIQQHISIDGSRSYKLKSATGSVVSTRKEELIAILDHFNIQVDNPVSVLTQEMSKQFLQSKNEGDKYKFFMKATQLEQMKEDYSYIMETKERTKEQIHQGEERLTELKRQCVEKEERFQSIAGLSTMKTNLESLKHEMAWAVVNEIEKQLNAIRDNIKIGEDRAARLDRKMEEQQVRLNEAEQKYKDIQDKLEKISEETNARAPECMALKADVVAKKRAYNEAEVLYNRSLNEYKALKKDDEQLCKRIEELKKSTDQSLEPERLERQKKISWLKERVKAFQNQENSVNQEIEQFQQAIEKDKEEHGKIKREELDVKHALSYNQRQLKELKDSKTDRLKRFGPNVPALLEAIDDAYRQGHFTYKPVGPLGACIHLRDPELALAIESCLKGLLQAYCCHNHADERVLQALMKRFYLPGTSRPPIIVSEFRNEIYDVRHRAAYHPDFPTVLTALEIDNAVVANSLIDMRGIETVLLIKNNSVARAVMQSQKPPKNCREAFTADGDQVFAGRYYSSENTRPKFLSRDVDSEISDLENEVENKTAQILNLQQHLSALEKDIKHNEELLKRCQLHYKELKMKIRKNISEIRELENIEEHQSVDIATLEDEAQENKSKMKMVEEHMEQQKENMEHLKSLKIEAENKYDAIKFKINQLSELADPLKDELNLADSEVDNQKRGKRHYEEKQKEHLDTLNKKKRELDMKEKELEEKMSQARQICPERIEVEKSASILDKEINRLRQKIQAEHASHGDREEIMRQYQEARETYLDLDSKVRTLKKFIKLLGEIMEHRFKTYQQFRRCLTLRCKLYFDNLLSQRAYCGKMNFDHKNETLSISVQPGEGNKAAFNDMRALSGGERSFSTVCFILSLWSIAESPFRCLDEFDVYMDMVNRRIAMDLILKMADSQRFRQFILLTPQSMSSLPSSKLIRILRMSDPERGQTTLPFRPVTQEEDDDQR
binding: binds
